Measured values taken from doi:10.64898/2025.12.11.692796.
Results are given in words; binding and its absence hold for the method and conditions named. Binding seen in cells or lysates may run through a third protein. Some results given as binding are weak or reduced against the parent protein; the word gives no strength.

Chains of the proteins cited; added tags and fusions are not shown.
UniProt Q14191: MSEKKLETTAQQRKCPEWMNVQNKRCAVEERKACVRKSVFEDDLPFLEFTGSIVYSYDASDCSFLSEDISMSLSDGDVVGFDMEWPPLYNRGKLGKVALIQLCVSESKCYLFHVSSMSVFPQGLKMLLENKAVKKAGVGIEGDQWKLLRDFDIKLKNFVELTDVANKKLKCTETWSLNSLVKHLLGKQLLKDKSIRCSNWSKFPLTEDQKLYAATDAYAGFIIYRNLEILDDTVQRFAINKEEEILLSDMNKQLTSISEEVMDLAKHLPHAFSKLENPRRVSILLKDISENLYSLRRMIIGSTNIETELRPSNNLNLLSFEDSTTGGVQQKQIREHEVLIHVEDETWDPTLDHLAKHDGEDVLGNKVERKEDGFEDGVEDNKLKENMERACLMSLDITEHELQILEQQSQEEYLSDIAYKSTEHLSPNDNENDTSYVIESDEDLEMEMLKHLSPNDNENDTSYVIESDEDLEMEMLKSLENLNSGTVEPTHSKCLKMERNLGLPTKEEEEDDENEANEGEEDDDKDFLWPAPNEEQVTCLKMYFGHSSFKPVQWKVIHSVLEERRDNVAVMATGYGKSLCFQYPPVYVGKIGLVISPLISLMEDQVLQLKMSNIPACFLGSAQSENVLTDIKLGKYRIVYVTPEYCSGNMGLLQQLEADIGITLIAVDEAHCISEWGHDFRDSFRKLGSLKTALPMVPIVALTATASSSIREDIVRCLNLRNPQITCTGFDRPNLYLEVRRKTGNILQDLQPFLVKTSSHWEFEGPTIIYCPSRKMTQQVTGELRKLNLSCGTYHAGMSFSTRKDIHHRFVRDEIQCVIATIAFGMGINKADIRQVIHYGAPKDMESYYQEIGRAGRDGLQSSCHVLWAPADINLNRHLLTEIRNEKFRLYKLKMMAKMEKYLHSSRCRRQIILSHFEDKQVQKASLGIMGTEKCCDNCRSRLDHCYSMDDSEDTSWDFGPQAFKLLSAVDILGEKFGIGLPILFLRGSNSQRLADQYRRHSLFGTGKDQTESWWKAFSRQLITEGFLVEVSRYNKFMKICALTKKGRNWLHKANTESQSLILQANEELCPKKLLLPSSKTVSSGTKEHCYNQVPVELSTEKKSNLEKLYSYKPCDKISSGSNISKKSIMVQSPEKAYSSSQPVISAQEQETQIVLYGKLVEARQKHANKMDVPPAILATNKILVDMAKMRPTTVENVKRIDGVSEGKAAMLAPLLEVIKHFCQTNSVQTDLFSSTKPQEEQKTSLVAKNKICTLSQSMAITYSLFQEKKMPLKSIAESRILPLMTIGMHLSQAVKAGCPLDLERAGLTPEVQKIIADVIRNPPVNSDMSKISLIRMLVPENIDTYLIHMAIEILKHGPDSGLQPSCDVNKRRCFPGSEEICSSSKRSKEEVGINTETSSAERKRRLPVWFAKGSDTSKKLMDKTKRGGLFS

Target: FLAG-tagged WRN (Werner RECQ helicase-exonuclease) (human) (UniProt Q14191)
Assay: co-IP

binding: binds
B1: U2AF35, a core subunit of the U2 auxiliary factor (U2AF) complex (protein, UniProt Q01081-1 1-240)
chain: MAEYLASIFGTEKDKVNCSFYFKIGACRHGDRCSRLHNKPTFSQTIALLNIYRNPQNSSQSADGLRCAVSDVEMQEHYDEFFEEVFTEMEEKYGEVEEMNVCDNLGDHLVGNVYVKFRREEDAEKAVIDLNNRWFNGQPIHAELSPVTDFREACCRQYEMGECTRGGFCNFMHLKPISRELRRELYGRRRKKHRSRSRSRERRSRSRDRGRGGGGGGGGGGGGRERDRRRSRDRERSGRF
